The chains are these.
T1: TAP-Sen1ΔNTD (Sen1 lacking the N-terminal domain, TAP-tagged, expressed from pGAL1) (S. cerevisiae) (UniProt Q00416)
T1 sequence: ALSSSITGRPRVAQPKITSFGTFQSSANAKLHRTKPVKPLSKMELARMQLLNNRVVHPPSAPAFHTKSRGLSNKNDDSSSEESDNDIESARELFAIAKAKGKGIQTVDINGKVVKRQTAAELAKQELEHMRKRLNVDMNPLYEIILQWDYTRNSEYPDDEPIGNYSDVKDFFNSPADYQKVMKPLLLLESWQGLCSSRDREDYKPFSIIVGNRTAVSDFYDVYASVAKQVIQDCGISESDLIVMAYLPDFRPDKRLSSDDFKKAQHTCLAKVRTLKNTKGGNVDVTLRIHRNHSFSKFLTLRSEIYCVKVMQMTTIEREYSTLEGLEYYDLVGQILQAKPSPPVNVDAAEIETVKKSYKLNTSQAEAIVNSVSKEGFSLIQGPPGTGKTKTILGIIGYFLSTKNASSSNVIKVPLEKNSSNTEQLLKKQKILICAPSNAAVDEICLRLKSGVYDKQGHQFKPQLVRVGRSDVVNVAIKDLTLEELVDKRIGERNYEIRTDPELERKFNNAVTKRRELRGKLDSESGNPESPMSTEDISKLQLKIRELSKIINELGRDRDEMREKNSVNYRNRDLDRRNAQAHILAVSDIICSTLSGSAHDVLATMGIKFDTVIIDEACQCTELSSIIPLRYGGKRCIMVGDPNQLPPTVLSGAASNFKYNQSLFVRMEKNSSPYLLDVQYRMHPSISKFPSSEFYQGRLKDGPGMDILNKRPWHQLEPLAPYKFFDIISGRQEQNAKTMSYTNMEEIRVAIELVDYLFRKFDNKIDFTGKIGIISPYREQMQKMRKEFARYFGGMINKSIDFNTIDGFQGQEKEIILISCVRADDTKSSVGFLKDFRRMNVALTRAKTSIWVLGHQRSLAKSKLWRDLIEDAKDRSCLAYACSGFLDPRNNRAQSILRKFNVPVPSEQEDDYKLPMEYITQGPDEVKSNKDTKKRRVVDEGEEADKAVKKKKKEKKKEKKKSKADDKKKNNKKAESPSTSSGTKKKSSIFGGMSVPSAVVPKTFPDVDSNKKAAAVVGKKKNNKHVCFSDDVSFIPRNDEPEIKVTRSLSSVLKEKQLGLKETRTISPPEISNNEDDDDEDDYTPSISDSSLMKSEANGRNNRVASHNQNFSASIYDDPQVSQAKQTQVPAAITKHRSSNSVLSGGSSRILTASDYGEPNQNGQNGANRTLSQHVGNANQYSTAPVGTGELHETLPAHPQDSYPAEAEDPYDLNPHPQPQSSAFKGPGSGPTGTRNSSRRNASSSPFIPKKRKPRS

T2: TAP-NTD (isolated N-terminal domain of Sen1, TAP-tagged, expressed from pGAL1) (S. cerevisiae) (UniProt Q00416)
T2 sequence: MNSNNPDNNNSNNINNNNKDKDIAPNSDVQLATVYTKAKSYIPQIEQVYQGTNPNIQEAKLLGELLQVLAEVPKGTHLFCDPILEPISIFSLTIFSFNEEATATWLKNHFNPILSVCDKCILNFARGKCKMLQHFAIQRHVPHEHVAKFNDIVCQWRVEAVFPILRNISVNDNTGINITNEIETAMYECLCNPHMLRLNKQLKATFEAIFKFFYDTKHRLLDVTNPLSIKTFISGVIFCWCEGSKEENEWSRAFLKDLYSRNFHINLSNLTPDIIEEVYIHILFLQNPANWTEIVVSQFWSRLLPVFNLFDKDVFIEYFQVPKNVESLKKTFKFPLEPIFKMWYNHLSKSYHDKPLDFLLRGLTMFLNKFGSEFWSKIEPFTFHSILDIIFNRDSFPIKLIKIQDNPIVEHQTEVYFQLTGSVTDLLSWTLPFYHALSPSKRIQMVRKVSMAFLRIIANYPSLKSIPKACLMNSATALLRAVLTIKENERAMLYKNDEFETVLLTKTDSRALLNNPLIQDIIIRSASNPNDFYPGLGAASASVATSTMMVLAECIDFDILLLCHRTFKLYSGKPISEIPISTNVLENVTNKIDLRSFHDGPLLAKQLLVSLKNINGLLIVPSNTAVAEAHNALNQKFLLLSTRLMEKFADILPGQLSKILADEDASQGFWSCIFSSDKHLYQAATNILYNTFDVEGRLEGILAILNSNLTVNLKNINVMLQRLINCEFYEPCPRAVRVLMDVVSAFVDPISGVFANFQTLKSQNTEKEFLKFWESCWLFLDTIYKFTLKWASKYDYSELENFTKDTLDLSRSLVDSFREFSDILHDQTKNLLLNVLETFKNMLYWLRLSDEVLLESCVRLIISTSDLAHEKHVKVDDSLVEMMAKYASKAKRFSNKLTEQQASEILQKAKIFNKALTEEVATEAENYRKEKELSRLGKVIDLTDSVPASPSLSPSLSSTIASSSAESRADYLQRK

B1: Rpc82 (protein, UniProt P32349 1-654)
chain: MDELLGEALSAENQTGESTVESEKLVTPEDVMTISSLEQRTLNPDLFLYKELVKAHLGERAASVIGMLVALGRLSVRELVEKIDGMDVDSVKTTLVSLTQLRCVKYLQETAISGKKTTYYYYNEEGIHILLYSGLIIDEIITQMRVNDEEEHKQLVAEIVQNVISLGSLTVEDYLSSVTSDSMKYTISSLFVQLCEMGYLIQISKLHYTPIEDLWQFLYEKHYKNIPRNSPLSDLKKRSQAKMNAKTDFAKIINKPNELSQILTVDPKTSLRIVKPTVSLTINLDRFMKGRRSKQLINLAKTRVGSVTAQVYKIALRLTEQKSPKIRDPLTQTGLLQDLEEAKSFQDEAELVEEKTPGLTFNAIDLARHLPAELDLRGSLLSRKPSDNKKRSGSNAAASLPSKKLKTEDGFVIPALPAAVSKSLQESGDTQEEDEEEEDLDADTEDPHSASLINSHLKILASSNFPFLNETKPGVYYVPYSKLMPVLKSSVYEYVIASTLGPSAMRLSRCIRDNKLVSEKIINSTALMKEKDIRSTLASLIRYNSVEIQEVPRTADRSASRAVFLFRCKETHSYNFMRQNLEWNMANLLFKKEKLKQENSTLLKKANRDDVKGRENELLLPSELNQLKMVNERELNVFARLSRLLSLWEVFQMA
B2: Rpc53 (protein, UniProt P25441 1-422)
chain: MSSNKGNGRLPSLKDSSSNGGGSAKPSLKFKPKAVARKSKEEREAAASKVKLEEESKRGNDKKHFNNKNKRVTGAGGQQRRMAKYLNNTHVISSGPLAAGNFVSEKGDLRRGFIKSEGSGSSLVQKGLETIDNGAESSENEAEDDDNEGVASKSKKKFNMGKEFEARNLIEDEDDGESEKSSDVDMDDEEWRSKRIEQLFPVRPVRVRHEDVETVKREIQEALSEKPTREPTPSVKTEPVGTGLQSYLEERERQVNEKLADLGLEKEFQSVDGKEAAAELELLNADHQHILRKLKKMNNKPERFMVFQLPTRLPAFERPAVKEEKEDMETQASDPSKKKKNIKKKDTKDALSTRELAGKVGSIRVHKSGKLSVKIGNVVMDIGKGAETTFLQDVIALSIADDASSAELLGRVDGKIVVTPQI
B3: Rpc128 (protein, UniProt P22276 1-1149)
chain: MVAATKRRKTHIHKHVKDEAFDDLLKPVYKGKKLTDEINTAQDKWHLLPAFLKVKGLVKQHLDSFNYFVDTDLKKIIKANQLILSDVDPEFYLKYVDIRVGKKSSSSTKDYLTPPHECRLRDMTYSAPIYVDIEYTRGRNIIMHKDVEIGRMPIMLRSNKCILYDADESKMAKLNECPLDPGGYFIVNGTEKVILVQEQLSKNRIIVEADEKKGIVQASVTSSTHERKSKTYVITKNGKIYLKHNSIAEEIPIAIVLKACGILSDLEIMQLVCGNDSSYQDIFAVNLEESSKLDIYTQQQALEYIGAKVKTMRRQKLTILQEGIEAIATTVIAHLTVEALDFREKALYIAMMTRRVVMAMYNPKMIDDRDYVGNKRLELAGQLISLLFEDLFKKFNNDFKLSIDKVLKKPNRAMEYDALLSINVHSNNITSGLNRAISTGNWSLKRFKMERAGVTHVLSRLSYISALGMMTRISSQFEKSRKVSGPRALQPSQFGMLCTADTPEGEACGLVKNLALMTHITTDDEEEPIKKLCYVLGVEDITLIDSASLHLNYGVYLNGTLIGSIRFPTKFVTQFRHLRRTGKVSEFISIYSNSHQMAVHIATDGGRICRPLIIVSDGQSRVKDIHLRKLLDGELDFDDFLKLGLVEYLDVNEENDSYIALYEKDIVPSMTHLEIEPFTILGAVAGLIPYPHHNQSPRNTYQCAMGKQAIGAIAYNQFKRIDTLLYLMTYPQQPMVKTKTIELIDYDKLPAGQNATVAVMSYSGYDIEDALVLNKSSIDRGFGRCETRRKTTTVLKRYANHTQDIIGGMRVDENGDPIWQHQSLGPDGLGEVGMKVQSGQIYINKSVPTNSADAPNPNNVNVQTQYREAPVIYRGPEPSHIDQVMMSVSDNDQALIKVLLRQNRRPELGDKFSSRHGQKGVCGIIVKQEDMPFNDQGIVPDIIMNPHGFPSRMTVGKMIELISGKAGVLNGTLEYGTCFGGSKLEDMSKILVDQGFNYSGKDMLYSGITGECLQAYIFFGPIYYQKLKHMVLDKMHARARGPRAVLTRQPTEGRSRDGGLRLGEMERDCVIAYGASQLLLERLMISSDAFEVDVCDKCGLMGYSGWCTTCKSAENIIKMTIPYAAKLLFQELLSMNIAPRLRLEDIFQQ
B4: Rpc37 (protein, UniProt P36121 1-282)
chain: MSIDNKLFVTEEDEEDRTQDRADVEDESNDIDMIADENGTNSAIANEQEEKSEEVKAEDDTGEEEEDDPVIEEFPLKISGEEESLHVFQYANRPRLVGRKPAEHPFISAARYKPKSHLWEIDIPLDEQAFYNKDKAESEWNGVNVQTLKGVGVENNGQYAAFVKDMQVYLVPIERVAQLKPFFKYIDDANVTRKQEDARRNPNPSSQRAQVVTMSVKSVNDPSQNRLTGSLLAHKVADEEANIELTWAEGTFEQFKDTIVKEAEDKTLVALEKQEDYIDNLV
B5: Rpc25 (protein, UniProt P35718 1-212)
chain: MFILSKIADLVRIPPDQFHRDTISAITHQLNNKFANKIIPNVGLCITIYDLLTVEEGQLKPGDGSSYINVTFRAVVFKPFLGEIVTGWISKCTAEGIKVSLLGIFDDIFIPQNMLFEGCYYTPEESAWIWPMDEETKLYFDVNEKIRFRIEREVFVDVKPKSPKERELEERAQLENEIEGKNEETPQNEKPPAYALLGSCQTDGMGLVSWWE

No constants are given. Whether binding was seen depends on the method and setting. In cells and extracts the contact can be indirect. Here binding means that the protein was enriched with, or labelled near, the bait; the list need not be complete. For part of these data: No binding means not detected with the bait. For part of these data: Where a sequence is shown, tags or fusion partners need not be part of it.

One assay concerns the target Sen1-TAP (wild-type Sen1 fused to a TAP tag) (S. cerevisiae) (UniProt Q00416). The experiment in a line: affinity purification with mass spectrometry; Sen1-TAP or Sen1-3–TAP as bait; yeast lysates; untagged control.
For B1, the binding entry is “binds”.
Regarding B2, the binding entry was “binds”.
Turning to B3, the binding result was “binds”.
Turning to B4, the binding result is reported as “binds”.
On to B5, for which the binding entry is recorded as “binds”.

For the next assay, the target named is T1, TAP-Sen1ΔNTD (Sen1 lacking the N-terminal domain, TAP-tagged, expressed from pGAL1) (S. cerevisiae). The experiment in a line: affinity purification with mass spectrometry; TAP-tagged Sen1 versions (full length, ΔNTD, NTD) overexpressed from pGAL1 as baits; yeast lysates in 10 mM sodium phosphate pH 7.5, 200 mM sodium acetate, 0.25% NP-40, treated with RNase A; IgG Sepharose; elution by TEV cleavage; untagged control.
Take B1: the binding result is “no binding”.
Same read-out and setting: the same measure for B3: “no binding”; for B4: “no binding”; for B5: “no binding”.

Another assay has as its target TAP-Sen1 (full-length Sen1 fused to a tandem affinity purification tag, expressed from pGAL1) (S. cerevisiae) (UniProt Q00416). The assay is described as above.
Regarding B1, the binding result is on record as “binds”.
Still for that read-out and setting: next, B2: “binds”.
Consider B3, for which the binding entry is recorded as “binds”.
Still for that read-out and setting: next, B4: “binds”; B5: “binds”.

For another assay, the target named is T2, TAP-NTD (isolated N-terminal domain of Sen1, TAP-tagged, expressed from pGAL1) (S. cerevisiae). The description is as above.
As to B1, the binding entry is “binds”.
The same measure, in the same setting: the same measure for B2: “binds”; for B3: “binds”.
Consider B4, for which the binding entry is “binds”.
